The list shows only some results of the screen, not a fair sample: it gathers some chemical classes. Other doses and runs of a compound may be missing. T/C is the treated group as % of the vehicle group. Schedule codes are those of the source, taken here to give the interval after Q, in days (D) or hours (H), and the number of doses after X. Some T/C values are marked as having no survivor count here; that says nothing about deaths at the dose. Some T/C values carry the count of animals alive at the toxicity check; without a count or a note in brackets, all were alive then.
Tested on: BDF1 mice, Friend leukemia sc, tumor weight T/C
Test: NCI In Vivo Anticancer Drug Screen. Data for tumor model Friend Virus Leukemia (Solid) (subcutaneous) in B6D2F1 (BDF1) mice
Details: T/C endpoint: mean tumor weight, schedule: Q01DX011 (ip), higher T/C = larger tumour
Protocol: The antitumor activity of compounds was measured in mice bearing transplantable tumors. Survival or tumor size were measured and the results are expressed as the measurement made in the treated group (T) divided by the measurement made in the vehicle treated control group (C). The tumor model used in this assay is Friend Virus Leukemia (Solid) (subcutaneous) in B6D2F1 (BDF1) mice

[1] = dose: 1.0 mg/kg/injection, vehicle: saline, evaluated on day 12
[2] = dose: 2.0 mg/kg/injection, vehicle: saline, evaluated on day 12

## CN(N=O)C(=N)N[N+](=O)[O-]
dose: 10.0 mg/kg/injection, vehicle: carboxymethylcellulose (CMC), evaluated on day 12
  T/C: 113 % of control

## Cc1[nH]c(=O)[nH]c(=O)c1N(CCCl)CCCl
dose: 0.5 mg/kg/injection, vehicle: saline, evaluated on day 12
  T/C: 142 % of control
[1]
  T/C: 97 % of control
dose: 1.5 mg/kg/injection, vehicle: saline, evaluated on day 12
  T/C: 69 % of control
[2]
  T/C: 63 % of control
dose: 3.0 mg/kg/injection, vehicle: saline, evaluated on day 12
  T/C: 28 % of control

## CCOC(=O)COc1ccc(N(CCCl)CCCl)cc1
dose: 2.0 mg/kg/injection, vehicle: carboxymethylcellulose (CMC), evaluated on day 12
  T/C: 81 % of control [9 of 10 alive]
dose: 4.0 mg/kg/injection, vehicle: carboxymethylcellulose (CMC), evaluated on day 12
  T/C: 75 % of control
dose: 8.0 mg/kg/injection, vehicle: carboxymethylcellulose (CMC), evaluated on day 12
  T/C: 56 % of control [9 of 10 alive]
dose: 16.0 mg/kg/injection, vehicle: carboxymethylcellulose (CMC), evaluated on day 12
  T/C: 43 % of control

## BrCc1cccc(CBr)c1
dose: 1.25 mg/kg/injection, vehicle: carboxymethylcellulose (CMC), evaluated on day 12
  T/C: 115 % of control
dose: 2.5 mg/kg/injection, vehicle: carboxymethylcellulose (CMC), evaluated on day 12
  T/C: 136 % of control
dose: 5.0 mg/kg/injection, vehicle: carboxymethylcellulose (CMC), evaluated on day 12
  T/C: 109 % of control

## N/C(=N\[N+](=O)[O-])N(CCO[N+](=O)[O-])N=O
dose: 15.0 mg/kg/injection, vehicle: carboxymethylcellulose (CMC), evaluation day not shown
  T/C: 119 % of control [survivor count not shown]
dose: 30.0 mg/kg/injection, vehicle: carboxymethylcellulose (CMC), evaluation day not shown
  T/C: 99 % of control [survivor count not shown]
dose: 60.0 mg/kg/injection, vehicle: carboxymethylcellulose (CMC), evaluation day not shown
  T/C: 88 % of control [survivor count not shown]

## O[C@H](CNCCBr)[C@@H](O)CNCCBr
[1]
  T/C: 129 % of control
[2]
  T/C: 106 % of control
dose: 4.0 mg/kg/injection, vehicle: saline, evaluated on day 12
  T/C: 97 % of control
dose: 8.0 mg/kg/injection, vehicle: saline, evaluated on day 12
  T/C: 56 % of control [9 of 10 alive]

## OC(CNCCCl)C(O)C(O)C(O)CNCCCl (centres undefined)
dose: 2.1 mg/kg/injection, vehicle: carboxymethylcellulose (CMC), evaluated on day 12
  T/C: 122 % of control
dose: 4.2 mg/kg/injection, vehicle: carboxymethylcellulose (CMC), evaluated on day 12
  T/C: 93 % of control [9 of 10 alive]
dose: 8.5 mg/kg/injection, vehicle: carboxymethylcellulose (CMC), evaluated on day 12
  T/C: 69 % of control
dose: 17.0 mg/kg/injection, vehicle: carboxymethylcellulose (CMC), evaluated on day 12
  T/C: 59 % of control
